Laboratory results as given in paper PMC4277420, “Assessment of [^125I]WYE-230949 as a Novel Histamine H3 Receptor Radiopharmaceutical” (PLoS ONE, 2014).
For part of its entries the source gives two or more results. The list is limited to them. An entry can have further records. The values listed for one entry differ for a reason that is not stated; dose, time, organism, isomer or construct need not be as stated for each record.

Assay: Ex vivo biodistribution
Conditions: after 2 min, anaesthetised rats

**Q.** Which “plateau radioactive concentration in plasma and whole blood” value does the source give for `O=C(c1ccc(Cn2cnc3cccc([125I])c32)cc1)N1CC[C@H](N2CCCC2)C1` [[^125I]WYE-230949] here?
**A.** approximately 0.3 %ID/g and 0.2 – 0.3 %ID/g
